What follows are molecules tested on ConA-induced T-lymphocyte proliferation (spleen cells from BALB/C mice) (assay: T cell function assay: ConA-induced T-lymphocyte proliferation ([3H]-thymidine uptake)). Settings: IC50 against ConA-induced T-lymphocyte proliferation vs periploside A.
Type: cell-based
Method: Supplementary Figure 63. Inhibition of concanavalin A (ConA)-induced
T-lymphocyte proliferation by synthetic compounds 1, 31, and 41-43.
Bioassay for the immunosuppressive activities17
Preparation of spleen cells from mice
BALB/C mice were sacrificed and spleens were removed aseptically. A single cell suspension was prepared after cell debris and clumps were removed. Erythrocytes were lysed using ammonium chloride buffer solution. The isolated lymphocytes were washed 3 times with PBS containing 2% FBS, and were re-suspended in RPMI 1640 medium at the indicated concentration. […]
1 x 10^6 of fresh spleen cells were cultured for 48 h at the same conditions as mentioned above. The cultures were stimulated with 5 µg/mL of concanavalin A (ConA) to induce T cells proliferative responses. The compounds were added to cultures with indicated concentrations to test their bioactivities. Proliferation was assessed in terms of uptake of [3H]-thymidine during last 8 h culture pulsing with 25 µCi of [3H]-thymidine for each well, and then cells were harvested onto glass fiber filters by a Basic 96 harvester. The incorporated radioactivity was counted by a liquid scintillation counter (1540 MicroBeta Trilux, Perkin–Elmer Life Sciences).

Compound	fold less potent than the natural product
CO[C@H]1[C@@H](O)[C@@H](C)O[C@@H](O[C@H]2[C@@H](OC)C[C@H](O[C@H]3[C@@H](OC)C[C@H](O[C@H]4[C@@H](OC)C[C@H](O[C@@H]5[C@@H](C)O[C@]6(C[C@H]5OC)OCO[C@@H]5C[C@H](O[C@@H](C)[C@@]7(O)CCC8C9CC=C%10C[C@@H](O)CC[C@]%10(C)C9CC[C@@]87C)O[C@H](C)[C@H]5O6)O[C@@H]4C)O[C@@H]3C)O[C@@H]2C)[C@@H]1OC(C)=O (stereo partly drawn) [C1′′-epi-periploside A (31), C1′′-epi-periploside A]	~ 2.4 fold

Same assay, conditions: selectivity index, CC50 vs IC50

Compound	SI
CO[C@H]1[C@@H](O)[C@@H](C)O[C@@H](O[C@H]2[C@@H](OC)C[C@H](O[C@H]3[C@@H](OC)C[C@H](O[C@H]4[C@@H](OC)C[C@H](O[C@@H]5[C@@H](C)O[C@]6(C[C@H]5OC)OCO[C@@H]5C[C@H](O[C@@H](C)[C@@]7(O)CCC8C9CC=C%10C[C@@H](O)CC[C@]%10(C)C9CC[C@@]87C)O[C@H](C)[C@H]5O6)O[C@@H]4C)O[C@@H]3C)O[C@@H]2C)[C@@H]1OC(C)=O (stereo partly drawn) [C1′′-epi-periploside A (31), C1′′-epi-periploside A]	3.9
CO[C@H]1[C@@H](O)[C@@H](C)O[C@@H](O[C@H]2[C@@H](OC)C[C@H](O[C@H]3[C@@H](OC)C[C@H](O[C@H]4[C@@H](OC)C[C@@H](O[C@@H]5[C@@H](C)O[C@@]6(C[C@H]5OC)OCO[C@@H]5C[C@H](O[C@@H](C)[C@@]7(O)CCC8C9CC=C%10C[C@@H](O)CC[C@]%10(C)C9CC[C@@]87C)O[C@H](C)[C@H]5O6)O[C@@H]4C)O[C@@H]3C)O[C@@H]2C)[C@@H]1OC(C)=O (stereo partly drawn) [C1′′′-epi-periploside A (41), C1′′′-epi-periploside A]	5.8
CO[C@@H]1C[C@]2(OCO[C@@H]3C[C@H](O[C@@H](C)[C@@]4(O)CCC5C6CC=C7C[C@@H](O)CC[C@]7(C)C6CC[C@@]54C)O[C@H](C)[C@H]3O2)O[C@H](C)[C@H]1O (stereo partly drawn) [Disaccharide 42]	2.1
CO[C@@H]1C[C@]2(OCO[C@@H]3C[C@@H](O[C@@H](C)[C@@]4(O)CCC5C6CC=C7C[C@@H](O)CC[C@]7(C)C6CC[C@@]54C)O[C@H](C)[C@H]3O2)O[C@H](C)[C@H]1O (stereo partly drawn) [Disaccharide 43]	7.5
COC1CC(OC2C(C)OC3(CC2OC)OCOC2CC(OC(C)C4(O)CCC5C6CC=C7CC(O)CCC7(C)C6CCC54C)OC(C)C2O3)OC(C)C1OC1CC(OC)C(OC2CC(OC)C(OC3OC(C)C(O)C(OC)C3OC(C)=O)C(C)O2)C(C)O1 (stereo not drawn) [Periploside A (1), Periploside A]	12
